According to patent US12673029B2, “Nanodelivery system based on globulin-1 S allele, preparation method therefor and use thereof” (Zhejiang Gongshang University, priority 2022, dated 2026):

Tested on: wheat GSA protein (globulin-1 S allele)
Assay: Fluorescence quenching determination of the binding force of wheat GSA protein to curcumin
Method: A wheat GSA protein solution and a curcumin solution were mixed in a certain ratio (1:1, 1:2, 1:5, 1:10) at different temperatures (298 K, 303 K, 310 K) for 2 hours. The final concentration of GSA was 1 μM, wherein the molecular weight of GSA was 56.16 KDa and the concentration of curcumin was 1 μM, 2 μM, 5 μM and 10 μM. The excitation spectrum was set at 280 nm, the emission spectrum was from 320 nm to 500 nm, and the recording temperature was 298 K, 303 K, and 310 K.
At an excitation wavelength of 280 nm, tryptophan and tyrosine residues will be excited. Binding of proteins and small molecules will lead to a decrease in fluorescence emission. As the concentration of curcumin increased, the fluorescence intensity decreased constantly and a slight red shift appeared.
Fluorescence quenching can be divided into dynamic quenching and static quenching. A dynamic quenching process can be distinguished by a Stern-Volmer equation: F0/F=1+KSV[Q]=1+Kqτ0[Q] (1)
wherein F0 and F are the GSA fluorescence intensity of the system in the absence and presence of curcumin, respectively; [Q] is the concentration of a quencher curcumin; and Kq is a fluorescence quenching rate constant.
Values for a static quenching mechanism, a binding constant and the number of binding sites can be obtained from a […] equation: log[(F0-F)/F]=log(Ka)+n log[Q] (2)
wherein Ka is a binding constant, [Q] is the concentration of curcumin, and n is the number of binding sites. A log-log plot of log[(F0−F)/F] versus log[Q] was made at 298 K, 303 K, and 310 K, respectively, according to the equation, as shown in FIG. 3. Ka and n at different temperatures were obtained from the intercept and slope.
To determine the action force between GSA and curcumin, the temperature-dependent thermodynamic parameters (ΔG, ΔH, and ΔS) were calculated using the following equations: -lnK==−ΔH/RT+ΔS/RΔG=ΔH−TΔS (3) • wherein R is a gas constant (8.314 J/mol*K), and T is the experimental temperature.

COc1cc(/C=C/C(=O)CC(=O)/C=C/c2ccc(O)c(OC)c2)ccc1O [curcumin, Curcumin] was tested, and the “n (number of binding sites)” value (298 K) was 1.099, the ΔG (298 K) was -9.4534 kcal/mol and the “n of binding curcumin to GSA” value (298 K, 303 K, and 310 K) was about 1. For the same compound, the “n (number of binding sites)” value (303 K) was 1.1540, the ΔG (303 K) was -9.9787 kcal/mol and the “n (number of binding sites)” value (310 K) was 1.1593. For the same compound, the ΔG (310 K) was -10.714 kcal/mol, the ΔH (from 298 K, 303 K, 310 K data) was 21.855 kcal/mol and the ΔS (from 298 K, 303 K, 310 K data) was 0.105063 kcal/mol.
